In patent publication US5597809A, “Treatment of optic neuritis” (priority 1994, dated 1997):
At least one compound was matched to its structure with a doubt left.

Test system: M. tuberculosis and M. avium isolates
Experiment: Minimal inhibitory concentration of ethambutol by radiometric Bactec technique with and without protective agents
Format: cell-based, Mycobacterium tuberculosis; Mycobacterium avium
Details: 100 μM agent

NC(CCCP(=O)(O)O)C(=O)O (stereo not shown) [APV, 2-amino-5-phosphonovalerate]
effect on the concentration of ethambutol necessary to kill mycobacterial strains: had no effect
